Strings that start with PEPTIDE1 are HELM notation: dots part the residues, brackets hold end groups and non-standard residues.
Assay: general procedure: Fmoc solid-phase peptide synthesis; Rink amide MBHA resin (0.678 mmol/g); HATU/DIPEA; PyBOP/DIPEA for DOTA
Conditions: for conjugation yield: conjugation step; for step yield / final HPLC purity: late stage modification step; for final HPLC purity: analytical HPLC (Agilent LC/MS 1260 Infinity II, Poroshell 120 EC-C18)

For “DOTA-Lys(4-(p-iodophenyl)butyryl)-Phe(4-Cl)-c[D-Cys-Aph(Hor)-D-Aph(Cbm)-Lys(ivDde)-Thr-Cys]-D-Tyr-NH2”, the conjugation yield was 68%.

Substance “DOTA-Lys(4-(p-methoxyphenyl)butyryl)-Phe(4-Cl)-c[D-Cys-Aph(Hor)-D-Aph(Cbm)-Lys(ivDde)-Thr-Cys]-D-Tyr-NH2” has a conjugation yield of 69%.

With “PEPTIDE1{[DOTA].[Lys(IPB)].[Phe(4-Cl)].[dC].[Aph(Hor)].[D-Aph(Cbm)].K.T.C.[dY].[am]}$PEPTIDE1,PEPTIDE1,4:R3-9:R3$$$V2.0” the step yield was 9.9% and the “final HPLC purity” value was over 96%.

In the case of “PEPTIDE1{[DOTA].[Lys(MPB)].[Phe(4-Cl)].[dC].[Aph(Hor)].[D-Aph(Cbm)].K.T.C.[dY].[am]}$PEPTIDE1,PEPTIDE1,4:R3-9:R3$$$V2.0”, the step yield is reported as 8.7% and the “final HPLC purity” value is reported as over 94%.
